Data taken from the supplement of paper PMC10849652.
The list shows a part of the results.

Protein sequences, listed by entry. Tags and fused reporters are not part of them. Lines headed by an entry give the natural chain unless they say otherwise; changes in a name come on top.
UniProt Q9UHD9, whole entry, looked up: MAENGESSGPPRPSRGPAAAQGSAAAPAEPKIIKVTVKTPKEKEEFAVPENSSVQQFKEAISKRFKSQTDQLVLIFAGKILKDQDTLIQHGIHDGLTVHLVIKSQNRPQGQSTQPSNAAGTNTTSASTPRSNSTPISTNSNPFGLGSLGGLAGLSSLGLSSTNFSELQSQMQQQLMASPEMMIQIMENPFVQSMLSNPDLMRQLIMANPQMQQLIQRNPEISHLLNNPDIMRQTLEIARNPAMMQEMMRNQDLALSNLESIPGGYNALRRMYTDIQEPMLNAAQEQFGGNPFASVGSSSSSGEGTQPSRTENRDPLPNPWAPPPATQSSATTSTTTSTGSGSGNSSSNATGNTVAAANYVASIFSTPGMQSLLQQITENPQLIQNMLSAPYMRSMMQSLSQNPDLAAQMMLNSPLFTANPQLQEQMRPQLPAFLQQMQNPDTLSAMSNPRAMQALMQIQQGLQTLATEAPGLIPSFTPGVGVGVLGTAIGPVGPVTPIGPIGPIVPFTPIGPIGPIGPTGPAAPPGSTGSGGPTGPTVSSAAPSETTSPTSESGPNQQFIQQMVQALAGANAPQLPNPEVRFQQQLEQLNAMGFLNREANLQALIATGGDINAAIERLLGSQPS
UniProt Q9NVA1: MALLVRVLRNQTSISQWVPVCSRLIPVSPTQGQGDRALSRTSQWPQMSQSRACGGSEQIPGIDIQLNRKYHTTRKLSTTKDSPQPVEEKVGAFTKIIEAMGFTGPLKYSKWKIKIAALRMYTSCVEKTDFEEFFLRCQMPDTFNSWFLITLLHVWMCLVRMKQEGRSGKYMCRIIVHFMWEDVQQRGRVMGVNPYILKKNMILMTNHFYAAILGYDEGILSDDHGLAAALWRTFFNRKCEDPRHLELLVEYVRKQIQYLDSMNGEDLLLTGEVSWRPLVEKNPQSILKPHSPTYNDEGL
UniProt P15374: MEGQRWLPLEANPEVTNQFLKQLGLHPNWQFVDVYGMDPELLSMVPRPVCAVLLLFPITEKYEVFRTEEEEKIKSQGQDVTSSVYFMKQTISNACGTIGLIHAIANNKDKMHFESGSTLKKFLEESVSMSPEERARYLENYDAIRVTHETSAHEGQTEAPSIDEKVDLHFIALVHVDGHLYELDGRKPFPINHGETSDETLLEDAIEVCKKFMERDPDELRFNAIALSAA
UniProt Q8TED0: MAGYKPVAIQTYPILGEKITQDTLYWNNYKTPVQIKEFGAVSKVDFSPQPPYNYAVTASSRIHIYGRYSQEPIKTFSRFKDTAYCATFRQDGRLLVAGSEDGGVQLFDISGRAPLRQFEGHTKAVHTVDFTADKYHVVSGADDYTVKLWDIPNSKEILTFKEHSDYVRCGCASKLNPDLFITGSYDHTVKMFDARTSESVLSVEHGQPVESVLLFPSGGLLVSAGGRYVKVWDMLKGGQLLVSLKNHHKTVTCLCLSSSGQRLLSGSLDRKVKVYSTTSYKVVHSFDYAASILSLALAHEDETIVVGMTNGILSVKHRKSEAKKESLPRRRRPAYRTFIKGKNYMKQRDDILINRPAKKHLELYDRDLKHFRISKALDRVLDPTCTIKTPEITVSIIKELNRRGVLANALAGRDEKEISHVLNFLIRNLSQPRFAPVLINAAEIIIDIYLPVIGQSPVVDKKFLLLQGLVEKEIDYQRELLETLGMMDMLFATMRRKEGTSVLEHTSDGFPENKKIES
UniProt Q9BV40: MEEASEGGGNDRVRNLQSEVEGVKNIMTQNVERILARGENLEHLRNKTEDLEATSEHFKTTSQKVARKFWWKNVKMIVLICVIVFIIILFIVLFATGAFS
UniProt P50552: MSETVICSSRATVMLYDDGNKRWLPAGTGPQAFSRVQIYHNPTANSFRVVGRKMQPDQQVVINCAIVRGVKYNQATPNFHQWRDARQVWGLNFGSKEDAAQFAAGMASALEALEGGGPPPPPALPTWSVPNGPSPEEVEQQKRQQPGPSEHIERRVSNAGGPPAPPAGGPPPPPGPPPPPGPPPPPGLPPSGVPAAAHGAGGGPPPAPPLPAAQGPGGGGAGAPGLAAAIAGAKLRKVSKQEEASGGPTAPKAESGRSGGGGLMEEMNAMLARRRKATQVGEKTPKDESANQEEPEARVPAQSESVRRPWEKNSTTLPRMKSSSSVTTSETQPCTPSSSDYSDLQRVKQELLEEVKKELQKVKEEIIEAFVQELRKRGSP
UniProt Q9BZL1: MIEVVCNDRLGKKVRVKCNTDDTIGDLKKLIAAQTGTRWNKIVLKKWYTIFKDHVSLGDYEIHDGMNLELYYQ
UniProt Q96RL1: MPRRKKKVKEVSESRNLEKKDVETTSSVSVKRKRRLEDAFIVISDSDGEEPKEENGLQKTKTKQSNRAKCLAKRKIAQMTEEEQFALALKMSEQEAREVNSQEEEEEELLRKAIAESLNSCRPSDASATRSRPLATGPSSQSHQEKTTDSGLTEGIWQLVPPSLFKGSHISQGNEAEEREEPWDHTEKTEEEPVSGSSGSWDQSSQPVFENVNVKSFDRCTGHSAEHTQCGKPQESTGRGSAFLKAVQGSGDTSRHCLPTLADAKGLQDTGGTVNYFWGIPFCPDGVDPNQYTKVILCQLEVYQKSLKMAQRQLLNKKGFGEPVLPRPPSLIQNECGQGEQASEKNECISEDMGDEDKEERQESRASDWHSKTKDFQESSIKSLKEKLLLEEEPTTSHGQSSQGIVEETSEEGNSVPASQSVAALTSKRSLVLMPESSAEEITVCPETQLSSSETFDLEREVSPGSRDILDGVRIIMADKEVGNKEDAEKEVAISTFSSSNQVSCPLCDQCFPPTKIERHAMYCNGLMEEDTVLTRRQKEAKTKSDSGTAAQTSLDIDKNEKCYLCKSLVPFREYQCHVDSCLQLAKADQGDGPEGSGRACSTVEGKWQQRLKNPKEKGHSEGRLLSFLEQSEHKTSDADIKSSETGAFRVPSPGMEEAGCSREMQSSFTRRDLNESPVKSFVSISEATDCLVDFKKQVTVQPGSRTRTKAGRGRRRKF
UniProt Q96K76: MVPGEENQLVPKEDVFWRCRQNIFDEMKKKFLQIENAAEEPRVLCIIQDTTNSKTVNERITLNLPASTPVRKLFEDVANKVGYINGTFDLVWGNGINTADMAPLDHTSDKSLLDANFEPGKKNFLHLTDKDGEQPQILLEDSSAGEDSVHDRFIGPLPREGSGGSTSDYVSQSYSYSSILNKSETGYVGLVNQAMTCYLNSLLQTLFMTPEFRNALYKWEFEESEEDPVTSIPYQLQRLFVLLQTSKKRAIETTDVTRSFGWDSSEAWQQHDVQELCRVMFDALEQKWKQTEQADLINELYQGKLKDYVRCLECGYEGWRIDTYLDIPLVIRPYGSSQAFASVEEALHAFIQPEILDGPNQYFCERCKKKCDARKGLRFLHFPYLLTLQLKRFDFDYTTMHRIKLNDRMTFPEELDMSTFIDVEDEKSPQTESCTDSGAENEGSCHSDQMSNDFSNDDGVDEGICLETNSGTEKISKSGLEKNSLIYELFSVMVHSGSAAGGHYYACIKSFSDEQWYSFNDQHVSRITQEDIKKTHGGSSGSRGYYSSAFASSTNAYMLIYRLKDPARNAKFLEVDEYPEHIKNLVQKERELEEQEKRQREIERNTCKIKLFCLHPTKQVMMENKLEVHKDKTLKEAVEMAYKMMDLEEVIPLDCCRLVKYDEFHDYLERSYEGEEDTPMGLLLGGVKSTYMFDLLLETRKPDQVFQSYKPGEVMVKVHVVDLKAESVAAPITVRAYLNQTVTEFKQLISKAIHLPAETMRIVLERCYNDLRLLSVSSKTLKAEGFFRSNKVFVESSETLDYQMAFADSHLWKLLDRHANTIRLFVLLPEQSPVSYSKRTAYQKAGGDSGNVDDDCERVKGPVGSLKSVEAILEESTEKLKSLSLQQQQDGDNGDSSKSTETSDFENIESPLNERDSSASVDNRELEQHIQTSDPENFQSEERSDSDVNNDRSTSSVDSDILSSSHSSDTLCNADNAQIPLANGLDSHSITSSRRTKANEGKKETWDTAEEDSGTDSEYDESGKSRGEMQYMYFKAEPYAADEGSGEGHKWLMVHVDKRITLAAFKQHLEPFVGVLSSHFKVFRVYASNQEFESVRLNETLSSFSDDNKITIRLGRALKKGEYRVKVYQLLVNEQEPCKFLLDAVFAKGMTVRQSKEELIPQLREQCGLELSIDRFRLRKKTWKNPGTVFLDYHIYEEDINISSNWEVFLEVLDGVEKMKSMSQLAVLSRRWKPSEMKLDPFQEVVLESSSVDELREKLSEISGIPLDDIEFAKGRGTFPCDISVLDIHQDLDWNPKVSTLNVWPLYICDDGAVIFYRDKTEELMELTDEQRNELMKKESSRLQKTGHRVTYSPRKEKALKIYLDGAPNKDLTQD
UniProt O94763, whole entry, looked up: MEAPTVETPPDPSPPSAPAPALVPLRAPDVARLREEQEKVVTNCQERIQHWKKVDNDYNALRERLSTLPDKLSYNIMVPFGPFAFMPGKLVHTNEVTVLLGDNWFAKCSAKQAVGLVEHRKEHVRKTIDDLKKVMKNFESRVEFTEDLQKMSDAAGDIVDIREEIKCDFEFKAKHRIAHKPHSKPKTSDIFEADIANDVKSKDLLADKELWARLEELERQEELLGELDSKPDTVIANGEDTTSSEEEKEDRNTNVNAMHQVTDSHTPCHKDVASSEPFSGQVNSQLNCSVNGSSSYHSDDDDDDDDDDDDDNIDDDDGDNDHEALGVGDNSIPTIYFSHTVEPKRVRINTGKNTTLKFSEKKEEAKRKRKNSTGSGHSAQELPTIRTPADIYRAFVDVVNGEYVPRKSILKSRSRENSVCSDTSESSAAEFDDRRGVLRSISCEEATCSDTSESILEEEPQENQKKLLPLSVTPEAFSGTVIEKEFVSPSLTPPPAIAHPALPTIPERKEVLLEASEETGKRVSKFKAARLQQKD
UniProt O14949: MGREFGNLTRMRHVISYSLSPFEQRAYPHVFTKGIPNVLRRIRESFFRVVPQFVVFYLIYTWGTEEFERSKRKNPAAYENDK
UniProt Q8N806: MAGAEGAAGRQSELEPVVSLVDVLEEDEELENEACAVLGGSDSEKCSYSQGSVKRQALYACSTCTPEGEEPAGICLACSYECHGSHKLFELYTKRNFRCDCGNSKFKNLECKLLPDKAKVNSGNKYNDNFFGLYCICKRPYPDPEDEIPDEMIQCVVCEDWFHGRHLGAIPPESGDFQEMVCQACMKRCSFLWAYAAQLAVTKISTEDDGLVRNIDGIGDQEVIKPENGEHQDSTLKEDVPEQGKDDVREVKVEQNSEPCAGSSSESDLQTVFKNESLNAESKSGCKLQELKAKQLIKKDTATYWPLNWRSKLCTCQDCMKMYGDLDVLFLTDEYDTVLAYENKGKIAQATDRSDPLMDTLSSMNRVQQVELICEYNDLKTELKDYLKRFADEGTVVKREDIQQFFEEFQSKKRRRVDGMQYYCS
UniProt Q92900: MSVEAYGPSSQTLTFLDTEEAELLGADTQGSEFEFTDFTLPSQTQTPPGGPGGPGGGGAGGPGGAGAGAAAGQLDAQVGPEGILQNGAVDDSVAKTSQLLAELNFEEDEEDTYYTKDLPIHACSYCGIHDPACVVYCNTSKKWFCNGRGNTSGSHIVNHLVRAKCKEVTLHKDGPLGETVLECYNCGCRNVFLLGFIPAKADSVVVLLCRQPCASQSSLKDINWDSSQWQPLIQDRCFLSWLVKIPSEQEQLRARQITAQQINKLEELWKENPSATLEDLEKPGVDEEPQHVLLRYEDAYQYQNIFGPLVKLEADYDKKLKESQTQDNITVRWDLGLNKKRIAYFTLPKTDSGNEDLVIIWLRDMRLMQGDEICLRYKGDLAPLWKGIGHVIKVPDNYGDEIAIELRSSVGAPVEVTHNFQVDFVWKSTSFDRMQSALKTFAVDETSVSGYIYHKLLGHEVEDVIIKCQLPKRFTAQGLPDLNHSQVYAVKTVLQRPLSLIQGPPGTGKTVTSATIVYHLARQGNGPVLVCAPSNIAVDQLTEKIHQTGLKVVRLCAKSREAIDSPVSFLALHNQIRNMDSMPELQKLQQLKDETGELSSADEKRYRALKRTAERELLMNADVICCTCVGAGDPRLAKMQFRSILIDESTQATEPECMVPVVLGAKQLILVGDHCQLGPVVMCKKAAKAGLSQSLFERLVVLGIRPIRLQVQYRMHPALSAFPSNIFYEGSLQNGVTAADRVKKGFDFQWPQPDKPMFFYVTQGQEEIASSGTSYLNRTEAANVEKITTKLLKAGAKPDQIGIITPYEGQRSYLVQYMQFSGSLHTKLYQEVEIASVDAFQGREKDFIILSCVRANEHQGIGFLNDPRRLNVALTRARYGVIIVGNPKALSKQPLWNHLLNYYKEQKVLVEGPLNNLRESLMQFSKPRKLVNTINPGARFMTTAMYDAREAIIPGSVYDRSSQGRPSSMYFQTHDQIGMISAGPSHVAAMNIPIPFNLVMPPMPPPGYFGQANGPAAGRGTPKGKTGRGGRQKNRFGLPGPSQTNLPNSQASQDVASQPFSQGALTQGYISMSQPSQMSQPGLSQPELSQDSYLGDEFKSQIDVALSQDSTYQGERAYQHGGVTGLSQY

compound: CC(C)C1=C2N=C(C=C(N2N=C1)NCC3=CC=CC=C3)NCCCCCCN; assay: log2 fold change, soluble protein after heating vs DMSO (PISA); higher = thermal stabilisation; K562 cells, 10 uM, 30 min; active = over 0.2 and 3.5 SD of the protein, either way, in both replicates (recomputed)
Outline: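 Aliquots of K562 cells (2×10^6 cells/mL) treated with 10 μM compound for 30 min were heated for 3 min over 48°C-58°C. After pooling and extraction in PBS with 0.5% NP-40 at 4°C, soluble protein from a 21,000xg, 90 min spin was quantified by TMTpro 16plex LC-MS/MS with channel sums equalised. Thermal stability is expressed against control samples, from duplicates, as a log2 fold change.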

log2 fold change, inactive:
UBQLN2 (UniProt Q9UHD9) 0.076
UQCC1 (UniProt Q9NVA1) -0.042
USP1 (UniProt O94782) -0.066
UCK1 (UniProt Q9HA47) 0.057
UCHL3 (UniProt P15374) -0.007
VAC14 (UniProt Q08AM6) -0.089
UTP15 (UniProt Q8TED0) 0.197
VAMP8 (UniProt Q9BV40) -0.011
VASP (UniProt P50552) -0.076
URGCP (UniProt Q8TCY9) -0.024
UBL5 (UniProt Q9BZL1) -0.033
UIMC1 (UniProt Q96RL1) -0.015
USP47 (UniProt Q96K76) -0.307
UNC13D isoform 3 (UniProt Q70J99) -0.343
UNC45A (UniProt Q9H3U1) -0.182
UVRAG (UniProt Q9P2Y5) -0.027
URI1 isoform 4 (UniProt O94763) 0.2
VAMP4 (UniProt O75379) -0.012
UQCRQ (UniProt O14949) 0.053
UBR7 (UniProt Q8N806) 0.09
UPF1 (UniProt Q92900) 0.075
UFC1 (UniProt Q9Y3C8) 0.068
UBE3C (UniProt Q15386) -0.012

Not a retest: entries from further up.
log2 fold change, inactive:
UQCC1 (UniProt Q9NVA1) -0.042
USP1 (UniProt O94782) -0.066
